Some of the results follow.
Molecular target: OsWRKY34 (Oryza sativa, UniProt Q0JBA9 1-250)
Assay: protein-binding microarray (RPBM); PBS, 2% BSA, 51.3 ng/ul salmon testes DNA, 50 uM zinc acetate, 200 nM TF, 25 C, 1 h; high values mean tight binding
Conditions: protein: recombinant; tags: N-terminal polyhistidine and DsRed monomer fusion (pET32a); label: CyDye5-dUTP incorporated in the synthesized complementary strand; 3' TTTTT single-stranded linker to array surface; dsDNA, one strand shown
Outline: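 Binding signal is defined as the fluorescence intensity of each feature in arbitrary units, read on an Axon 4000B scanner. Transcription factors with N-terminal polyhistidine and DsRed fusions came from E. coli BL21-CodonPlus and were purified on Ni–NTA. They were incubated at 200 nM for 1 h at 25 °C on a custom Agilent array that had been made double-stranded with Cy5-dUTP, with 50 µM zinc acetate present, and the array was washed.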

The chains behind the UniProt entries cited, without tags or fusion partners.
UniProt Q0JBA9, entry or part of it: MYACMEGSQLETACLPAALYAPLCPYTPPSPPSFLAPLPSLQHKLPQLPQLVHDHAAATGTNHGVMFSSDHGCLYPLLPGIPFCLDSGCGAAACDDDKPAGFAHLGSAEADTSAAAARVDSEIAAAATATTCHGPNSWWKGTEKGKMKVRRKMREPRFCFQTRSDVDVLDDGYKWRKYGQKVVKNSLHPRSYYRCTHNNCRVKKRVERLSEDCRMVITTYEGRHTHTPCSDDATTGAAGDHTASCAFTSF

Sequence	binding signal
ACAGCCGTGGAGGGGAGGAGAATCGGCCGCCGTTGACCACCGGAGTCACCTAGTGCAG	15400 fluorescence intensity (a.u.)
ACGCCTCATCTCCAGTCCACGGCTCAACGTCCACGCACACCGGAGTCACCTAGTGCAG	10500 fluorescence intensity (a.u.)
TAGCTAGCTGAATTTGCAAGCACGTACTACATTGTTAGATCGGAGTCACCTAGTGCAG	8340 fluorescence intensity (a.u.)
CTTCGTCTCTCGCCTTGTACATTTCTAATTGTTATATGTTCGGAGTCACCTAGTGCAG	8500 fluorescence intensity (a.u.)
TCCTCTGCAGTCACTTTACCGTGCATTTATCACATGTCAGCGGAGTCACCTAGTGCAG	9610 fluorescence intensity (a.u.)
TATCCTTTGACTTTGAGTGACTGACATATAGACCCATGCTCGGAGTCACCTAGTGCAG	9980 fluorescence intensity (a.u.)
GGCCCATATCGCGCTCCTCGTCTTGCCGTCCAAGACGTCTCGGAGTCACCTAGTGCAG	12400 fluorescence intensity (a.u.)
GAGTACTGCTGCTCCTGCTTGTGTTGCCATACATGTTGACCGGAGTCACCTAGTGCAG	10800 fluorescence intensity (a.u.)
CAAGATTAGCACTCACTGGTTCTTCTTCCTTGTTTATTTGCGGAGTCACCTAGTGCAG	9810 fluorescence intensity (a.u.)
CAGTCACCTGAGGAAGTCCTAGCTCGCTCGCTCTCTCTCTCGGAGTCACCTAGTGCAG	9610 fluorescence intensity (a.u.)
GGTCCGGCGGAAGTAGGGGCGGAAGTGCGGGCGGGAGATGCGGAGTCACCTAGTGCAG	9700 fluorescence intensity (a.u.)
AGTTTCAAAGTTCAAACTGGCATACCGTCTACCCATGTCCCGGAGTCACCTAGTGCAG	8880 fluorescence intensity (a.u.)
CTTCAAGGGTTGTGCACTTTTTCCTTCTCTCATGGATAATCGGAGTCACCTAGTGCAG	9160 fluorescence intensity (a.u.)
AACTTGACGCTACCCCTATCTGGCGCGCCAATTGTCGAAACGGAGTCACCTAGTGCAG	9010 fluorescence intensity (a.u.)
CAAGCCACCATCCCGACACTGTTCGAGAACCCGTCCACGTCGGAGTCACCTAGTGCAG	9350 fluorescence intensity (a.u.)
CTCACTCACATGTCACGGCATCGGACATCGGTAAAGCAAACGGAGTCACCTAGTGCAG	8840 fluorescence intensity (a.u.)
CTGCGCCATACCATATTTAATGCATTCCTGTCGTGCTCATCGGAGTCACCTAGTGCAG	9820 fluorescence intensity (a.u.)
GCCCGCACGTCAGTGGGCGTAGGTACAGTCGGGGCGGGTGCGGAGTCACCTAGTGCAG	8890 fluorescence intensity (a.u.)
AATTTTCAGCAACTTGTTCTCCTTAGTTGATAGCATATACCGGAGTCACCTAGTGCAG	8920 fluorescence intensity (a.u.)
ACGCGCGGGCGCTTCGCCTCCGTCACCATCTCGCGAGATGCGGAGTCACCTAGTGCAG	9280 fluorescence intensity (a.u.)
CTCGCCGTCCGCCGCCTCGCTCGCTCGCTCGCCGTCCGCCCGGAGTCACCTAGTGCAG	9450 fluorescence intensity (a.u.)

Sequence	binding signal
AGCCACAAATCCTTATTCGTTCAATTGTTTTTCTTCCTCTCGGAGTCACCTAGTGCAG	8140 fluorescence intensity (a.u.)
TGGGTGGTGGTGGTGGTTCATCTCGCCGCGGGCGCGCACACGGAGTCACCTAGTGCAG	8400 fluorescence intensity (a.u.)
TTTTCTGTAGCTTTCTATTTTTTGCTAGCCTCCTTGTGATCGGAGTCACCTAGTGCAG	8680 fluorescence intensity (a.u.)
AATCGGGTATGTAAACTTTTGACTTATAAACTTTGGGTCTCGGAGTCACCTAGTGCAG	9240 fluorescence intensity (a.u.)
TATAGATAGATACTACCAGGGTTTCCAAACTGTTTTTTTGCGGAGTCACCTAGTGCAG	23300 fluorescence intensity (a.u.)
ACTCATTTTCTTTCTGGGAGCTCTTTTATCTAACTACTCCCGGAGTCACCTAGTGCAG	9220 fluorescence intensity (a.u.)
TACTCCTTCTCGCTAGCTTTGTGTTTATAGAGTTGCATTTCGGAGTCACCTAGTGCAG	9660 fluorescence intensity (a.u.)
TGAGTGCCCGTGCTCCGTCCCACCGCCGTCACTGCCATCCCGGAGTCACCTAGTGCAG	9110 fluorescence intensity (a.u.)
TCCTTCATATTATAAGACTTTCTAGCATTGCCCACATTCACGGAGTCACCTAGTGCAG	8870 fluorescence intensity (a.u.)
GGGTAATGGAGGAGATGGGCCAGTAGGGTTGGTGACTGTTCGGAGTCACCTAGTGCAG	9380 fluorescence intensity (a.u.)
AAGTCAAAACAGCGTTAGTCTAAGCCCTATATAAACGCTCCGGAGTCACCTAGTGCAG	8460 fluorescence intensity (a.u.)
AGGGGTGGGATTGAGATTGGGAAATAAATAAAATGTTAGGCGGAGTCACCTAGTGCAG	8140 fluorescence intensity (a.u.)
CCTCCCTACCATTGGGCCCTTGCCCCTTACTTTTGTACAACGGAGTCACCTAGTGCAG	9420 fluorescence intensity (a.u.)
GGGTGTGTTGTGGTGGTTACCTTCCGGGTTCCGGCGCATCCGGAGTCACCTAGTGCAG	9920 fluorescence intensity (a.u.)
TCACTCACTCACTTCGCTTGCTTTGCTTGGCCCGATCCTTCGGAGTCACCTAGTGCAG	10100 fluorescence intensity (a.u.)
CGTGGGAGTCGTAGTGATTCTGTGCTTGGGTTGGATGTTGCGGAGTCACCTAGTGCAG	8950 fluorescence intensity (a.u.)
TTCTCGAGCTGCTCGATCGCGATTTTTTTTCATTTTTAATCGGAGTCACCTAGTGCAG	12600 fluorescence intensity (a.u.)
CAGCCCGCCGCCCCGCCCCGCCCCGCCGCAGGTCATTGACCGGAGTCACCTAGTGCAG	16400 fluorescence intensity (a.u.)
GGGGAAGACGACGTCCGGTTGTTTTATTCGGATGGGCCTCCGGAGTCACCTAGTGCAG	9020 fluorescence intensity (a.u.)
TTGCCTTCTTCCTAGCTGCACACACCAACTTCACCGGAACCGGAGTCACCTAGTGCAG	8640 fluorescence intensity (a.u.)
TTTTCTTCAACTTCAAACTTCACCTTCATCATTTTTAGTTCGGAGTCACCTAGTGCAG	9680 fluorescence intensity (a.u.)

Sequence	binding signal
AAGTTTAGAACTTGATCGAGGTGGGCGGATTCTACTACAACGGAGTCACCTAGTGCAG	9280 fluorescence intensity (a.u.)
CCTCTGTTTCCGGAACGGTCTCTATCTTCGATTCCGCTTCCGGAGTCACCTAGTGCAG	10200 fluorescence intensity (a.u.)
TTCCTCCATTTCCACCGGCGCCGGCGGCCGCCGAAACCGCCGGAGTCACCTAGTGCAG	8060 fluorescence intensity (a.u.)
TACCGTCTTTTCCGGATGTTACAACTTTTTTACGTTACAGCGGAGTCACCTAGTGCAG	9910 fluorescence intensity (a.u.)
ATCACACGAAAGACGTTACTACGATTCTCTTTCTTCCAAACGGAGTCACCTAGTGCAG	9040 fluorescence intensity (a.u.)
ACTTTTTTTTTTGCACTAGTGAATAGCCTTTTTTCCTTTCCGGAGTCACCTAGTGCAG	11500 fluorescence intensity (a.u.)
CTCGCATCACACTAGCTTGACACGCCCTCAATTTCTCACACGGAGTCACCTAGTGCAG	8140 fluorescence intensity (a.u.)
AGAAAAATCCCATTTCTCCTTTCAGTCCCTGTCCACTTACCGGAGTCACCTAGTGCAG	11900 fluorescence intensity (a.u.)
CTTTTGCCAAAGAACCACTACTACCTTTTGCCCAAGAACACGGAGTCACCTAGTGCAG	8220 fluorescence intensity (a.u.)
ACTAGGATGCCACGTCAGCGAAACCACCCATATATACTGTCGGAGTCACCTAGTGCAG	8590 fluorescence intensity (a.u.)
TATTAAGCATATGAAATTATCCCGGTTGTTTGTTCTTTGACGGAGTCACCTAGTGCAG	8030 fluorescence intensity (a.u.)
TCCCCTGCTCCCGCGTCATCGTCGCCGCCGCCGCCGCGTCCGGAGTCACCTAGTGCAG	9680 fluorescence intensity (a.u.)
ATAATACGTTAATTTCAAATCACACTGGCTTATTTAAATCCGGAGTCACCTAGTGCAG	9640 fluorescence intensity (a.u.)
GCTTTTCTTCCTCGACAAGGCCGCCTGCACCACCGTCTCCCGGAGTCACCTAGTGCAG	10500 fluorescence intensity (a.u.)
AACGTCGTAGTCTTTTCAATGCTGCACTCTTCTGTTCGGCCGGAGTCACCTAGTGCAG	11100 fluorescence intensity (a.u.)
GGTTCCTGTTTTAGCATTACGATATTTGGGTTGGTTTACTCGGAGTCACCTAGTGCAG	12000 fluorescence intensity (a.u.)
TATTGTATCGCTATCAGCACTGTTTTATTTGGTAGTACAACGGAGTCACCTAGTGCAG	8920 fluorescence intensity (a.u.)
TCTTTTTATCTCCTTAAAATATGTTTGTAGCTGATTTATACGGAGTCACCTAGTGCAG	8380 fluorescence intensity (a.u.)
AAATGCAGGTCTCCTCCTACCTCCGGCGAGCCCTCCGCCGCGGAGTCACCTAGTGCAG	8270 fluorescence intensity (a.u.)
AATTAATTTTGAAGTTGATTTTATGGTTTTTCCTTTTATTCGGAGTCACCTAGTGCAG	9090 fluorescence intensity (a.u.)
AGGGTTCTTTTGTTGTTGCTTCTACTGCTGGCTATTGTGTCGGAGTCACCTAGTGCAG	8250 fluorescence intensity (a.u.)

Sequence	binding signal
AATTACTAGTTTCATGGACGGACTCCATATATCCTTTCTTCGGAGTCACCTAGTGCAG	8390 fluorescence intensity (a.u.)
GCCACCTGTCACCATCATAGTCTCCTGCTCTGGTCTCTCCCGGAGTCACCTAGTGCAG	10800 fluorescence intensity (a.u.)
CCTGATGCATCCCTGCTGCCTAGTACTACTTACATACATACGGAGTCACCTAGTGCAG	9680 fluorescence intensity (a.u.)
AATGAGTGCTGTGCTGTCCACATCCATAGTCTGGACATAACGGAGTCACCTAGTGCAG	9940 fluorescence intensity (a.u.)
ACCACTGCATCGATCTGTTGTTCATGCATGCTTTCCTTGACGGAGTCACCTAGTGCAG	9340 fluorescence intensity (a.u.)
GCTGCTTAACTTTGCCCACCGGCCACCGTTCAGGGGCCATCGGAGTCACCTAGTGCAG	8080 fluorescence intensity (a.u.)
GGTTTGAATACACCCTTCGTTTTCGTTTTTTGTTTTTTTTCGGAGTCACCTAGTGCAG	14000 fluorescence intensity (a.u.)
ACACACACATTCATGCACACCACTAATGGCTGACAATTACCGGAGTCACCTAGTGCAG	9000 fluorescence intensity (a.u.)
CAGCTGCGCTTGGTGCTTCTGCTTTTGTAGCACATCATCACGGAGTCACCTAGTGCAG	8380 fluorescence intensity (a.u.)
TCCCTTCGGTTTTATACTTTTTCGCCCTAATTTCTTCTTCCGGAGTCACCTAGTGCAG	11200 fluorescence intensity (a.u.)
TTGTCTTTCTTGAGAATATTTTTGTTTGCTTGTTGATTTTCGGAGTCACCTAGTGCAG	9450 fluorescence intensity (a.u.)
ACTCAACCCTACACGCGCGTACCTTAATTAACTTGCTAGACGGAGTCACCTAGTGCAG	9020 fluorescence intensity (a.u.)
AGTGATGCTTTTGTTCCACCTAGTAGTGTTAATAATTTGCCGGAGTCACCTAGTGCAG	8680 fluorescence intensity (a.u.)
TTCCAACCTTATGAGTCTCACATTCCCTATCTTCTTCACTCGGAGTCACCTAGTGCAG	8340 fluorescence intensity (a.u.)
TGGGGTGGCGACGACGGATTAAAAGTTGGGTGGCTATTTTCGGAGTCACCTAGTGCAG	9230 fluorescence intensity (a.u.)
TTTGACATATTTTAAGGGGATTTTCTGTCAAATGTTATATCGGAGTCACCTAGTGCAG	8180 fluorescence intensity (a.u.)
GCTTAGCGTGGTTTTTTTTTTTTTTTTGTCGTTTCTGATTCGGAGTCACCTAGTGCAG	9090 fluorescence intensity (a.u.)
TCGCCCTCGACTCCGCTCTCCTGCGCTGCCCGATTTCCATCGGAGTCACCTAGTGCAG	9820 fluorescence intensity (a.u.)
AAGGGGTGTAGCTATATTTATGGCGCCATATTTTTCATCACGGAGTCACCTAGTGCAG	10200 fluorescence intensity (a.u.)
CACTTCACTGATCACTTCTTCCACCCTGCTCGATCACTCCCGGAGTCACCTAGTGCAG	9550 fluorescence intensity (a.u.)
GAGAAGAGATTGCTGACTAGGATTGTTGGCCCCACATTTTCGGAGTCACCTAGTGCAG	8480 fluorescence intensity (a.u.)

Reprinted at random: 3 records from the list, in no set order.
Sequence	binding signal
AATTACTAGTTTCATGGACGGACTCCATATATCCTTTCTTCGGAGTCACCTAGTGCAG	8390 fluorescence intensity (a.u.)
CACTTCACTGATCACTTCTTCCACCCTGCTCGATCACTCCCGGAGTCACCTAGTGCAG	9550 fluorescence intensity (a.u.)
CAGCTGCGCTTGGTGCTTCTGCTTTTGTAGCACATCATCACGGAGTCACCTAGTGCAG	8380 fluorescence intensity (a.u.)

Source: paper PMC7819943, “Rice protein-binding microarrays: a tool to detect cis-acting elements near promoter regions in rice”
